According to US20150031859A1:
These are yes or no findings as the source states them, for the method shown.

Chains of the proteins cited; added tags and fusions are not shown. Lines headed by an entry give the natural chain unless they say otherwise; changes in a name come on top.
UniProt P01568: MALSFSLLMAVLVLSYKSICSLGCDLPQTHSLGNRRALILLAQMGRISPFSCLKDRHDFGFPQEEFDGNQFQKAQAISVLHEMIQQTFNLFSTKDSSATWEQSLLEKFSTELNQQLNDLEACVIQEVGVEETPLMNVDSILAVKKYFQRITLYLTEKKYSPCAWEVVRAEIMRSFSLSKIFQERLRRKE

Target: recombinant interferon rSIFN-co (Synthesis (unnatural, artificially designed; same amino acid sequence as human consensus interferon)) (UniProt P01568)
Assay: purification experiments (solution state)

recombinant interferon rSIFN-co (from UniProt P01568 24-189) (ligand)
binding: no binding
